Measured values as given in US8877946B2, “Benzylidene-indolinone compounds and their medical use” (National University of Singapore, priority 2011, dated 2014).
The name of at least one read-out is uncertain.

Assay: PAMPA permeability (Pe)
Type: physicochemical
Settings: Pe close to reference compound quinidine (moderate permeability)
Method: Solubility and PAMPA permeability (Pe) are important physicochemical indicators of drug-like character. Determination of aqueous solubility was carried out on Multiscreen® Solubility filter plates (Millipore-MSSLBPC10) from Millipore Corporation (MA, USA). The protocol (PC2445EN00, Millipore Corporation) was followed. Pe determinations were carried out on MultiScreen-IP PAMPA assay (donor) plates (MAIPNTR10) and MultiScreen Receiver Plates (MATRNPS50) from Millipore Corporation (USA) with 1% lecithin (L-α-phosphatidylcholine from lyophilized powder of egg yolk, Sigma Aldrich, USA) in dodecane (ReagentPlus®, Sigma Aldrich, USA) as lipid barrier.

CNS(=O)(=O)c1cccc(/C=C2/C(=O)Nc3cc(Cl)ccc32)c1 [Compound 1-18, (E)-3-(6-Chloro-2-oxo-1,2-dihydro-indol-3-ylidenemethyl)-N-methyl-benzenesulfonamide]
permeability, in words: good permeability
